Measured values: the supplement of paper PMC8728848
This is one part of the list.

Tests used:
Assay in all cases: glycan array binding signal (z-score within array); higher = stronger binding
Settings in all cases: glycan notation: IUPAC condensed, linker removed
[1] = molecular target: Gal(b1-4)GlcNAc(b1-6)GalNAc
Method in brief: (§1)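 Negative Z-scores can be read as non-binding. The Z-score is calculated within each array and then averaged across arrays of one protein sequence at different concentrations or buffers and across linkers. Arrays, 3228 in all, were curated from the Consortium for Functional Glycomics database and kept only where the protein sequence was available.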

[2] = molecular target: Gal(b1-4)GlcNAc(b1-6)[Gal(b1-3)]GalNAc
Method in brief: as §1

[3] = molecular target: Gal(b1-4)GlcNAc(b1-6)[Gal(b1-3)]GlcNAc
Method in brief: as §1

Gal3S(b1-3)GalNAc = molecular target: Gal3S(b1-3)GalNAc
Method in brief: as §1

Gal3S(b1-3)GlcNAc = molecular target: Gal3S(b1-3)GlcNAc
Method in brief: as §1

[4] = molecular target: Gal3S(b1-3)[Fuc(a1-4)]GlcNAc
Method in brief: as §1

Gal3S(b1-4)Glc = molecular target: Gal3S(b1-4)Glc
Method in brief: as §1

Gal3S(b1-4)Glc6S = molecular target: Gal3S(b1-4)Glc6S
Method in brief: as §1

Gal3S(b1-4)GlcNAc = molecular target: Gal3S(b1-4)GlcNAc
Method in brief: as §1

Gal3S(b1-4)GlcNAc6S = molecular target: Gal3S(b1-4)GlcNAc6S
Method in brief: as §1

Gal3S6S(b1-4)GlcNAc = molecular target: Gal3S6S(b1-4)GlcNAc
Method in brief: as §1

Gal3S6S(b1-4)GlcNAc6S = molecular target: Gal3S6S(b1-4)GlcNAc6S
Method in brief: as §1

Gal4S(b1-4)GlcNAc = molecular target: Gal4S(b1-4)GlcNAc
Method in brief: as §1

Gal4S6S(b1-4)GlcNAc = molecular target: Gal4S6S(b1-4)GlcNAc
Method in brief: as §1

Gal6S(b1-4)Glc = molecular target: Gal6S(b1-4)Glc
Method in brief: as §1

Gal6S(b1-4)Glc6S = molecular target: Gal6S(b1-4)Glc6S
Method in brief: as §1

Gal6S(b1-4)GlcNAc = molecular target: Gal6S(b1-4)GlcNAc
Method in brief: as §1

GalNAc(a1-3)Gal = molecular target: GalNAc(a1-3)Gal
Method in brief: as §1

GalNAc(a1-3)GalNAc = molecular target: GalNAc(a1-3)GalNAc
Method in brief: as §1

[5] = molecular target: GalNAc(b1-3)Gal(a1-4)Gal(b1-4)GlcNAc
Method in brief: as §1

GalNAc(b1-4)GlcNAc = molecular target: GalNAc(b1-4)GlcNAc
Method in brief: as §1

Glc(a1-4)Glc = molecular target: Glc(a1-4)Glc
Method in brief: as §1

Glc(a1-6)Glc(a1-6)Glc = molecular target: Glc(a1-6)Glc(a1-6)Glc
Method in brief: as §1

Glc(b1-4)Glc = molecular target: Glc(b1-4)Glc
Method in brief: as §1

Glc(b1-6)Glc = molecular target: Glc(b1-6)Glc
Method in brief: as §1

GlcA(b1-3)Gal = molecular target: GlcA(b1-3)Gal
Method in brief: as §1

GlcA(b1-6)Gal = molecular target: GlcA(b1-6)Gal
Method in brief: as §1

[6] = molecular target: GlcNAc(a1-3)Gal(b1-4)GlcNAc
Method in brief: as §1

[7] = molecular target: GlcNAc(a1-6)Gal(b1-4)GlcNAc
Method in brief: as §1

[8] = molecular target: GlcNAc(b1-2)Gal(b1-3)GlcNAc
Method in brief: as §1

[9] = molecular target: GlcNAc(b1-2)Man(a1-3)[GlcNAc(b1-2)Man(a1-6)]Man(b1-4)GlcNAc(b1-4)GlcNAc
Method in brief: as §1

GlcNAc(b1-3)Gal = molecular target: GlcNAc(b1-3)Gal
Method in brief: as §1

[10] = molecular target: GlcNAc(b1-3)Gal(b1-3)GalNAc
Method in brief: as §1

GlcNAc(b1-3)Gal(b1-4)Glc = molecular target: GlcNAc(b1-3)Gal(b1-4)Glc
Method in brief: as §1

[11] = molecular target: GlcNAc(b1-3)Gal(b1-4)GlcNAc
Method in brief: as §1

[12] = molecular target: GlcNAc(b1-3)Gal(b1-4)GlcNAc(b1-3)Gal(b1-4)GlcNAc
Method in brief: as §1

GlcNAc(b1-3)GalNAc = molecular target: GlcNAc(b1-3)GalNAc
Method in brief: as §1

[13] = molecular target: GlcNAc(b1-3)[GlcNAc(b1-4)][GlcNAc(b1-6)]GlcNAc
Method in brief: as §1

[14] = molecular target: GlcNAc(b1-3)[GlcNAc(b1-6)]Gal(b1-4)GlcNAc
Method in brief: as §1

[15] = molecular target: GlcNAc(b1-3)[GlcNAc(b1-6)]GlcNAc
Method in brief: as §1

[16] = molecular target: GlcNAc(b1-4)Gal(b1-4)GlcNAc
Method in brief: as §1

[17] = molecular target: GlcNAc(b1-4)GlcNAc(b1-4)GlcNAc
Method in brief: as §1

[18] = molecular target: GlcNAc(b1-4)GlcNAc(b1-4)GlcNAc(b1-4)GlcNAc(b1-4)GlcNAc
Method in brief: as §1

[19] = molecular target: GlcNAc(b1-4)GlcNAc(b1-4)GlcNAc(b1-4)GlcNAc(b1-4)GlcNAc(b1-4)GlcNAc
Method in brief: as §1

[20] = molecular target: GlcNAc(b1-4)[GlcNAc(b1-6)]GalNAc
Method in brief: as §1

[21] = molecular target: GlcNAc(b1-6)Gal(b1-4)GlcNAc
Method in brief: as §1

GlcNAc(b1-6)GalNAc = molecular target: GlcNAc(b1-6)GalNAc
Method in brief: as §1

Kdn(a2-3)Gal(b1-3)GlcNAc = molecular target: Kdn(a2-3)Gal(b1-3)GlcNAc
Method in brief: as §1

Kdn(a2-3)Gal(b1-4)GlcNAc = molecular target: Kdn(a2-3)Gal(b1-4)GlcNAc
Method in brief: as §1

[22] = molecular target: Man(a1-2)Man(a1-2)Man(a1-3)Man
Method in brief: as §1

[23] = molecular target: Man(a1-2)Man(a1-2)Man(a1-3)[Man(a1-2)Man(a1-3)[Man(a1-2)Man(a1-6)]Man(a1-6)]Man(b1-4)GlcNAc(b1-4)GlcNAc
Method in brief: as §1

[24] = molecular target: Man(a1-2)Man(a1-2)Man(a1-3)[Man(a1-2)Man(a1-6)[Man(a1-3)]Man(a1-6)]Man(b1-4)GlcNAc(b1-4)GlcNAc
Method in brief: as §1

[25] = molecular target: Man(a1-2)Man(a1-2)Man(a1-6)[Man(a1-3)]Man
Method in brief: as §1

Man(a1-2)Man(a1-3)Man = molecular target: Man(a1-2)Man(a1-3)Man
Method in brief: as §1

[26] = molecular target: Man(a1-2)Man(a1-3)[Man(a1-2)Man(a1-6)]Man
Method in brief: as §1

[27] = molecular target: Man(a1-2)Man(a1-3)[Man(a1-3)[Man(a1-6)]Man(a1-6)]Man(b1-4)GlcNAc(b1-4)GlcNAc
Method in brief: as §1

[28] = molecular target: Man(a1-2)Man(a1-3)[Man(a1-6)]Man(a1-6)[Man(a1-2)Man(a1-3)]Man(b1-4)GlcNAc(b1-4)GlcNAc
Method in brief: as §1

Man(a1-3)[Man(a1-6)]Man = molecular target: Man(a1-3)[Man(a1-6)]Man
Method in brief: as §1

B1: KCR (Mus musculus), P70194 (protein)
chain: MKEAELNRDMARYCTDNQCVSLQPQGLGPKSAALMAPRTLRHVQVILALMVVTVIFSLLALFVVASQPWRPEWNKEPPSLLLRGSNNSGHDNHSQFVRETEMQVAIQRLRDYEENSSSCHKEVQILKYQMDNVSSLVQLLGSHLEDVNADILQTKDVLKESGALALETQALRSSLEVASADIHSLRGDLEKANAMTSQTRGLLKSSTENTSAELHVLGRGLEEAQSEIQALRGSLQSANDLSSQTQGFLQHSMDNISAQIQTVRDGMERAGEKMNSLKKELETLTAQTQKANGHLEQTDAQIQGLKAELKSTSSLNSRIEVVNGQMKDASRELQTLRRDLSDVSALKSNVQMLQSNLQRAKTEMQTLKADLQATKALTAKIQGEQNRLGALQEAVAAQKQEQKTQNQVLQLIAQNWKYFNGNFYYFSRDKKPWREAEKFCTSQGAHLASVTSQEEQAFLVQTTSSGDHWIGLTDQGTEGIWRWVDGTPFNNAQSKGFWGKNQPDNWRHRNGEREDCVHVRQQWNDMACGSSYPWVCKKSTGWSAARVG
With B1 the “glycan array binding signal (z-score)” value [1] was 0.734, the “glycan array binding signal (z-score)” value [2] was 0.017 and the “glycan array binding signal (z-score)” value [3] was -0.129. The “glycan array binding signal (z-score)” value (Gal3S(b1-3)GalNAc) was -0.429, the “glycan array binding signal (z-score)” value (Gal3S(b1-3)GlcNAc) was 0.069 and the “glycan array binding signal (z-score)” value [4] was 0.43. The “glycan array binding signal (z-score)” value (Gal3S(b1-4)Glc) was 0.71, the “glycan array binding signal (z-score)” value (Gal3S(b1-4)Glc6S) was 1.12 and the “glycan array binding signal (z-score)” value (Gal3S(b1-4)GlcNAc) was -0.178. For the same binder, the “glycan array binding signal (z-score)” value (Gal3S(b1-4)GlcNAc6S) was 0.95, the “glycan array binding signal (z-score)” value (Gal3S6S(b1-4)GlcNAc) was 0.47 and the “glycan array binding signal (z-score)” value (Gal3S6S(b1-4)GlcNAc6S) was 2.21. The “glycan array binding signal (z-score)” value (Gal4S(b1-4)GlcNAc) was 0.174, the “glycan array binding signal (z-score)” value (Gal4S6S(b1-4)GlcNAc) was 0.473 and the “glycan array binding signal (z-score)” value (Gal6S(b1-4)Glc) was 1.07. The “glycan array binding signal (z-score)” value (Gal6S(b1-4)Glc6S) was 2.48, the “glycan array binding signal (z-score)” value (Gal6S(b1-4)GlcNAc) was 0.769 and the “glycan array binding signal (z-score)” value (GalNAc(a1-3)Gal) was 0.172. For the same binder, the “glycan array binding signal (z-score)” value (GalNAc(a1-3)GalNAc) was 0.543, the “glycan array binding signal (z-score)” value [5] was 0.243 and the “glycan array binding signal (z-score)” value (GalNAc(b1-4)GlcNAc) was 0.041. The “glycan array binding signal (z-score)” value (Glc(a1-4)Glc) was -0.669, the “glycan array binding signal (z-score)” value (Glc(a1-6)Glc(a1-6)Glc) was -0.706 and the “glycan array binding signal (z-score)” value (Glc(b1-4)Glc) was -0.367. For the same binder, the “glycan array binding signal (z-score)” value (Glc(b1-6)Glc) was -0.566, the “glycan array binding signal (z-score)” value (GlcA(b1-3)Gal) was -0.071 and the “glycan array binding signal (z-score)” value (GlcA(b1-6)Gal) was 1.36. For the same binder, the “glycan array binding signal (z-score)” value [6] was -0.828, the “glycan array binding signal (z-score)” value [7] was 2.47 and the “glycan array binding signal (z-score)” value [8] was -0.911. The “glycan array binding signal (z-score)” value [9] was -0.569, the “glycan array binding signal (z-score)” value (GlcNAc(b1-3)Gal) was -0.711 and the “glycan array binding signal (z-score)” value [10] was -0.821. For the same binder, the “glycan array binding signal (z-score)” value (GlcNAc(b1-3)Gal(b1-4)Glc) was -0.818, the “glycan array binding signal (z-score)” value [11] was -0.541 and the “glycan array binding signal (z-score)” value [12] was -0.465. For the same binder, the “glycan array binding signal (z-score)” value (GlcNAc(b1-3)GalNAc) was -0.944, the “glycan array binding signal (z-score)” value [13] was -0.825 and the “glycan array binding signal (z-score)” value [14] was -0.831. For the same binder, the “glycan array binding signal (z-score)” value [15] was -0.721, the “glycan array binding signal (z-score)” value [16] was -0.82 and the “glycan array binding signal (z-score)” value [17] was 0.241. The “glycan array binding signal (z-score)” value [18] was -0.223, the “glycan array binding signal (z-score)” value [19] was -0.416 and the “glycan array binding signal (z-score)” value [20] was -0.917. For the same binder, the “glycan array binding signal (z-score)” value [21] was -0.61, the “glycan array binding signal (z-score)” value (GlcNAc(b1-6)GalNAc) was -0.376 and the “glycan array binding signal (z-score)” value (Kdn(a2-3)Gal(b1-3)GlcNAc) was -0.594. For the same binder, the “glycan array binding signal (z-score)” value (Kdn(a2-3)Gal(b1-4)GlcNAc) was -0.623, the “glycan array binding signal (z-score)” value [22] was -0.463 and the “glycan array binding signal (z-score)” value [23] was -0.71. For the same binder, the “glycan array binding signal (z-score)” value [24] was -0.336, the “glycan array binding signal (z-score)” value [25] was -0.473 and the “glycan array binding signal (z-score)” value (Man(a1-2)Man(a1-3)Man) was -0.608. For the same binder, the “glycan array binding signal (z-score)” value [26] was -0.817, the “glycan array binding signal (z-score)” value [27] was -0.289 and the “glycan array binding signal (z-score)” value [28] was -0.655. The “glycan array binding signal (z-score)” value (Man(a1-3)[Man(a1-6)]Man) was -0.663.
